Drawing on paper PMC4389229, this text covers binding for 6 molecules.

By UniProt entry, the sequences of proteins in these tests, tags left out.
UniProt P22336: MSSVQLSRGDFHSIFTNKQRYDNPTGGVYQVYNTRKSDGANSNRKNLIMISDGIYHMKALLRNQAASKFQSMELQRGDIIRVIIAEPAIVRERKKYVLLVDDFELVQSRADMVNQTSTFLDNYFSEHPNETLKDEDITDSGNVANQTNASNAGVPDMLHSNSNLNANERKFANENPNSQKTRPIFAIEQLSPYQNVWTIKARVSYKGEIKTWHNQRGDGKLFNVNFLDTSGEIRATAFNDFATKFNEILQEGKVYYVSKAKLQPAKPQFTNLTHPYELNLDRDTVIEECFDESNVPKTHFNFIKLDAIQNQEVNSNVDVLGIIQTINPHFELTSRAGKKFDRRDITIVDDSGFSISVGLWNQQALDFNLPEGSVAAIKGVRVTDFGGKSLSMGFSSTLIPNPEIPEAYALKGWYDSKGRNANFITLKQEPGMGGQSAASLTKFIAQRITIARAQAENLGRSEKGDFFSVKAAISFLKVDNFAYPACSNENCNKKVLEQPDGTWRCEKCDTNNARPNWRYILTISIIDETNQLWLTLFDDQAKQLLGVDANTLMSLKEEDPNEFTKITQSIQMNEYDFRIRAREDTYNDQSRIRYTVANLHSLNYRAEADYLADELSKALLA
UniProt P13010: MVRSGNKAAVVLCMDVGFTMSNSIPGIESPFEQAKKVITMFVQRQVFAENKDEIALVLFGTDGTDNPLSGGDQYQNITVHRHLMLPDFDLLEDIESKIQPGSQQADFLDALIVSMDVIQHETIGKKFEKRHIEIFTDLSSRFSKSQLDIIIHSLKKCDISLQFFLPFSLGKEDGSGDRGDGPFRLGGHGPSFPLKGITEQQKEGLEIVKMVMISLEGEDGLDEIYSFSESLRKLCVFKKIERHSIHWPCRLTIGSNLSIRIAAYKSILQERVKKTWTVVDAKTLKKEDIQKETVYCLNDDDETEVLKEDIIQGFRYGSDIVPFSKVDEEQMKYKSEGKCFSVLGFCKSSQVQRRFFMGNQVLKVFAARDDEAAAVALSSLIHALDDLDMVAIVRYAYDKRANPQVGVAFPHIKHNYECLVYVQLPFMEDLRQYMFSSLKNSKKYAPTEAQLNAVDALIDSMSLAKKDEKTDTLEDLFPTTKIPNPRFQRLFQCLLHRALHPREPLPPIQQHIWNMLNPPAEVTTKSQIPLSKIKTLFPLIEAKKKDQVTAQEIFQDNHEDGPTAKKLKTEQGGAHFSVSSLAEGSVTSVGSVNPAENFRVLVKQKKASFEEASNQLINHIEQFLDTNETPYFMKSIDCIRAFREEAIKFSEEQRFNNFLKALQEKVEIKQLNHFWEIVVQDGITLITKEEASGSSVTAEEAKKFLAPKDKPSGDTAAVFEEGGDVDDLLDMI
UniProt P12956: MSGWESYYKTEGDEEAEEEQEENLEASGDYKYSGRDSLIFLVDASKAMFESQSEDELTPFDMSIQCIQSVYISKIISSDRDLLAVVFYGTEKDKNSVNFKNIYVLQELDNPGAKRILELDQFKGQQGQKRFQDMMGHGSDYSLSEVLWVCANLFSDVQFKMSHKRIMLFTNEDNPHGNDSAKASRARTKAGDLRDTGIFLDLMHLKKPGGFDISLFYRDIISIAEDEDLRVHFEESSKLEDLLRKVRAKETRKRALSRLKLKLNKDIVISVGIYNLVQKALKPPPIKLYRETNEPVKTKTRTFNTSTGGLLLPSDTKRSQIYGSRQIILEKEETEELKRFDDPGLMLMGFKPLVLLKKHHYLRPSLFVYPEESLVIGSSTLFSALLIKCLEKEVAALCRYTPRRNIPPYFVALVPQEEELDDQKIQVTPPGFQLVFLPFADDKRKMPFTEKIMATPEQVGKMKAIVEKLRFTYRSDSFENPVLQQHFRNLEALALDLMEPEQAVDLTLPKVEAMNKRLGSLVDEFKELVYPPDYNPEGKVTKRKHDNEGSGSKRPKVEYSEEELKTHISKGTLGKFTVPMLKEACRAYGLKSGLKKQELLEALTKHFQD

One experiment deals with T1, Cmr1-YFP (S. cerevisiae) (UniProt Q12510).
T1 sequence: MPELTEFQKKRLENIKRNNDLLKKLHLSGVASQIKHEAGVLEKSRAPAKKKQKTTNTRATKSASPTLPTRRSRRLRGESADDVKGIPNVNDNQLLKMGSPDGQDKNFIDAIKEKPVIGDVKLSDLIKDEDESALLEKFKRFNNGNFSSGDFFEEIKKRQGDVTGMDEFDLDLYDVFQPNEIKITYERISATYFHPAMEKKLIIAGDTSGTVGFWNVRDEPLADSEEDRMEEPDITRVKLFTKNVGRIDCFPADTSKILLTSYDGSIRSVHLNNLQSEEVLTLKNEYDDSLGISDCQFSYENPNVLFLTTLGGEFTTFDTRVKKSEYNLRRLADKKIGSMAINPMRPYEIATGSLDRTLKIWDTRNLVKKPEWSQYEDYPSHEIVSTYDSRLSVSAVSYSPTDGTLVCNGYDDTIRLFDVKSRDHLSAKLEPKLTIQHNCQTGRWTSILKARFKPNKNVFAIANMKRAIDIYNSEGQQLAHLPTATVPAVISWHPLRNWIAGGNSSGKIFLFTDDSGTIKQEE
The experiment in a line: affinity purification with mass spectrometry; SILAC-labelled S. cerevisiae expressing a YFP-tagged bait against an untagged control, forward and label-swap; cells treated with 200 ug/ml zeocin for 2 h (Rad52-YFP) or 0.03% MMS for 2 h (Rfa1-YFP, Cmr1-YFP); whole-cell extracts (10 mM Tris-HCl pH 7.5, 150 mM NaCl, 0.5% NP40, no EDTA) on GFP-Trap_A beads, 2 h at 4 C; LC-MS/MS.

Experiment [1] addresses T2, GFP-WDR76 (human) (UniProt Q9H967).
T2 sequence: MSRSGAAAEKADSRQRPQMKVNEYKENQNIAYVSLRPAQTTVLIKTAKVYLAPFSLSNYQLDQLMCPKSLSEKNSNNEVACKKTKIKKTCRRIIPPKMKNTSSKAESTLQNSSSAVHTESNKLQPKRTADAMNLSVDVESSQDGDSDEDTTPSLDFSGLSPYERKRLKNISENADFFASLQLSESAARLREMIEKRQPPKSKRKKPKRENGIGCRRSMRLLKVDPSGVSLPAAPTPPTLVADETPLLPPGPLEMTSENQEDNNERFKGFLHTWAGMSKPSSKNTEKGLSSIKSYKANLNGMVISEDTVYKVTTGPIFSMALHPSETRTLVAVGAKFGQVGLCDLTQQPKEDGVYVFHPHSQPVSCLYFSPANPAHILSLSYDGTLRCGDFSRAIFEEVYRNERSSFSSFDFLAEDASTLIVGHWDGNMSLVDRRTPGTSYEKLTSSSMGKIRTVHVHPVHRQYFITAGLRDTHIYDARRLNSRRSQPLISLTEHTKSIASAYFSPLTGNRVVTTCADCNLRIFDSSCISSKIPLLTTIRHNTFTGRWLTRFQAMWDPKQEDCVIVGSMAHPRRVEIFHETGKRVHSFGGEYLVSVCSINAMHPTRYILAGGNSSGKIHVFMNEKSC
The experiment in a line: affinity purification with mass spectrometry; SILAC-labelled HeLa cells transfected with GFP-WDR76 or empty vector, lysed after 48 h in modified RIPA buffer (50 mM Tris-HCl pH 7.5, 150 mM NaCl, 1% NP-40, 0.1% Na-deoxycholate, 1 mM EDTA); GFP-Trap resin for 2 h; in-gel digestion, LC-MS/MS.

Experiment [2] concerns the target T2, GFP-WDR76 (human). Described as above. The source holds these as a separate data set.
A further experiment has as its target Rfa1-YFP (S. cerevisiae) (UniProt P22336). The experiment in a line: affinity purification with mass spectrometry; SILAC-labelled S. cerevisiae expressing a YFP-tagged bait against an untagged control, forward and label-swap; cells treated with 200 ug/ml zeocin for 2 h (Rad52-YFP) or 0.03% MMS for 2 h (Rfa1-YFP, Cmr1-YFP); whole-cell extracts (10 mM Tris-HCl pH 7.5, 150 mM NaCl, 0.5% NP40, no EDTA) on GFP-Trap_A beads, 2 h at 4 C; LC-MS/MS.

Like-named read-outs stand apart in the source and are kept apart here. These are yes or no findings as the source states them, for the method shown. In cells and extracts the contact can be indirect. Here binding means that the protein was enriched with, or labelled near, the bait; the list need not be complete. For part of these data: Sequences can lack the tags named with a protein.

For Rfa1 (from UniProt P22336 1-621), the binding entry with Cmr1-YFP (S. cerevisiae) is “binds”.

Turning to XRCC5 (from UniProt P13010 1-732), the binding result with GFP-WDR76 (human) [1] is “binds”.

XRCC6 (from UniProt P12956 1-609): the binding result in the experiment with GFP-WDR76 (human) [1] was “binds”.

B1: SUGT1 (protein, UniProt Q9Y2Z0 1-365)
chain: MAAAAAGTATSQRFFQSFSDALIDEDPQAALEELTKALEQKPDDAQYYCQRAYCHILLGNYCVAVADAKKSLELNPNNSTAMLRKGICEYHEKNYAAALETFTEGQKLDIETGFHRVGQAGLQLLTSSDPPALDSQSAGITGADANFSVWIKRCQEAQNGSESEVWTHQSKIKYDWYQTESQVVITLMIKNVQKNDVNVEFSEKELSALVKLPSGEDYNLKLELLHPIIPEQSTFKVLSTKIEIKLKKPEAVRWEKLEGQGDVPTPKQFVADVKNLYPSSSPYTRNWDKLVGEIKEEEKNEKLEGDAALNRLFQQIYSDGSDEVKRAMNKSFMESGGTVLSTNWSDVGKRKVEINPPDDMEWKKY
In the case of B1, in the experiment with GFP-WDR76 (human) [2], the binding result is on record as “binds”.

B2: Cmr1 (changed mutation rate 1) (protein, UniProt Q12510 1-522)
chain: T1 sequence
For the molecule B2, the binding entry in the experiment with Rfa1-YFP (S. cerevisiae) was “binds”.

B3: HELLS (protein, UniProt Q9NRZ9 1-838)
chain: MPAERPAGSGGSEAPAMVEQLDTAVITPAMLEEEEQLEAAGLERERKMLEKARMSWDRESTEIRYRRLQHLLEKSNIYSKFLLTKMEQQQLEEQKKKEKLERKKESLKVKKGKNSIDASEEKPVMRKKRGREDESYNISEVMSKEEILSVAKKNKKENEDENSSSTNLCVEDLQKNKDSNSIIKDRLSETVRQNTKFFFDPVRKCNGQPVPFQQPKHFTGGVMRWYQVEGMEWLRMLWENGINGILADEMGLGKTVQCIATIALMIQRGVPGPFLVCGPLSTLPNWMAEFKRFTPDIPTMLYHGTQEERQKLVRNIYKRKGTLQIHPVVITSFEIAMRDRNALQHCYWKYLIVDEGHRIKNMKCRLIRELKRFNADNKLLLTGTPLQNNLSELWSLLNFLLPDVFDDLKSFESWFDITSLSETAEDIIAKEREQNVLHMLHQILTPFLLRRLKSDVALEVPPKREVVVYAPLSKKQEIFYTAIVNRTIANMFGSSEKETIELSPTGRPKRRTRKSINYSKIDDFPNELEKLISQIQPEVDRERAVVEVNIPVESEVNLKLQNIMMLLRKCCNHPYLIEYPIDPVTQEFKIDEELVTNSGKFLILDRMLPELKKRGHKVLLFSQMTSMLDILMDYCHLRDFNFSRLDGSMSYSEREKNMHSFNTDPEVFIFLVSTRAGGLGINLTAADTVIIYDSDWNPQSDLQAQDRCHRIGQTKPVVVYRLVTANTIDQKIVERAAAKRKLEKLIIHKNHFKGGQSGLNLSKNFLDPKELMELLKSRDYEREIKGSREKVISDKDLELLLDRSDLIDQMNASGPIKEKMGIFKILENSEDSSPECLF
As to B3, the binding result with GFP-WDR76 (human) [2] is “binds”.
